Data as given in patent publication US12378518B2, “Differentiation induction from human pluripotent stem cells into hypothalamic neurons” (National University Corporation Nagoya University, priority 2016, dated 2025).
At least one compound was matched to its structure with a doubt left.

System: pituitary tissue from human iPS cells (201B7 strain)
Assay: ACTH suppression test using dexamethasone
Assay type: cell-based
Conditions: dexamethasone 500 ng/ml added at the time of stimulation with CRH addition

Compound: C[C@@H]1C[C@H]2[C@@H]3CCC4=CC(=O)C=C[C@]4(C)[C@@]3(F)[C@@H](O)C[C@]2(C)[C@@]1(O)C(=O)CO [dexamethasone]
- amount of ACTH secreted vs control group without dexamethasone: suppressed
